# From PubChem BioAssay AID2685 (National Center for Advancing Translational Sciences (NCATS), 2010)
# The campaign covered roughly 320,000 compounds. About 2,100 (0.66%) were called active. The inconclusive results got no clear call from the source; some entries with a clear call stand among them for comparison. Calls follow the shape of the dose curve; as a rule, active = well fitted inhibition curve with a large enough effect in the signal ratio, with a control signal flat (not every such curve was filed as active); inconclusive = small, poorly fitted or top-dose-only effect, or effect the other way, or a change in a side signal; inactive = flat fitted curve, though single readings scatter; the % refers to the signal ratio. Where the call is inconclusive, the potency comes from a doubtful curve fit.
# Test: qHTS Assay for Lipid Storage Modulators in Drosophila S3 Cells
# Details: BODIPY lipid droplet fluorescence, 18-24 h, cells fed with added oleic acid; lipid storage change, negative = inhibition: at 46.1 µM (top of the series) unless noted
# Procedure, shortened: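 Laser-scanning cytometry quantifies lipid droplet accumulation (500–530 nm total intensity; droplet/cell object ratio) in oleic acid-fed (400 uM added) Drosophila S3 cells treated with a concentration series. 20 uM Triacsin C defined 100% inhibition.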
# % is scaled to controls: 0 for no effect and ±100 for the full control effect; potency is read from the fitted curve at half-maximal effect.
SMILES,Potency,"lipid storage change, negative = inhibition"
CSCC[C@H](NC(=O)N1CCn2c1nc1ccccc12)C(=O)NCc1ccccc1,"inconclusive: 29.1 µM [falling, single point]",
C/C(=N\Nc1ccc(S(=O)(=O)N2CCCCC2)cn1)c1ccc(O)cc1,,inconclusive: 16.6%
O=C(COC(=O)[C@@H]1CCCN1S(=O)(=O)c1ccccc1F)Nc1ccc(OC(F)F)cc1,,inconclusive: 71.5%
CCOc1ccc(C2C(C#N)=C(N)Oc3cc(C)n(CCN4CCOCC4)c(=O)c32)cc1OCC (stereo unspecified),"inconclusive: 0.164 µM [activator, single point]",
COc1ccc(/C=N/NC(=O)c2ccc(Cl)cc2)cc1COC(C)=O,,inconclusive: 5.22%
S=C(NCc1ccccn1)Nc1ccc(Br)cc1Cl,,inconclusive: -37.6% [at 0.00295 µM]
O=C(CC(CC(=O)c1ccc(Br)cc1)c1cccnc1)c1ccc(Br)cc1,,inconclusive: 0.705%
O=C(Nc1cc(N2CCOCC2)ncn1)Nc1cccc2ccccc12,,inconclusive: 122%
Cc1c(Br)c([N+](=O)[O-])nn1CC(=O)Nc1ccc(Cc2ccncc2)cc1,,inconclusive: 34.1% [cytotoxic]
COc1cc(C(=O)Nc2nc(N)n(-c3ccccc3)n2)cc(OC)c1OC,"inconclusive: 6.51 µM [activator, single point]",
CCCCOc1ccc(C2(C(=O)O)CCCC2)cc1,"inconclusive: 29.1 µM [falling, single point]",
CC(=O)c1c(C)[nH]c(C(=O)OCCCCN2C(=O)c3ccccc3C2=O)c1C,active: 0.58 µM,
O=C(NN1CCOCC1)c1sc2cccc(F)c2c1Cl,,inconclusive: 18.6%
O=C(NC(N1CCOCC1)C(Cl)(Cl)Cl)c1cc([N+](=O)[O-])cc([N+](=O)[O-])c1 (stereo unspecified),,inactive
O=C(N/N=C/c1ccncc1)c1cccc(N/N=C/c2ccncc2)c1,"inconclusive: 3.66 µM [activator, partial curve, poor fit]",
CCCCn1c(N)c(N(CC(C)C)C(=O)c2cccc(-n3cnnn3)c2)c(=O)[nH]c1=O,,inconclusive: -4.06%
O=C(NCc1nc2ccccc2[nH]1)c1ccco1,,inconclusive: 14.7%
CC1CCN(S(=O)(=O)N2CCC(C(=O)N3CCC(N(C)CC4CCCO4)CC3)CC2)CC1 (stereo unspecified),,inconclusive: -20.4%
CCc1ccc(/C=C(/C#N)C(N)=S)s1,,inconclusive: 0.0452%
COC(=O)CCCNC(=O)OCc1ccc([N+](=O)[O-])cc1,"inconclusive: 18.4 µM [rising, single point]",
CC(C)c1ccc(NC(=O)COC(=O)C2CCCCC2)cc1,,inconclusive: 28.5%

# Quoted from the listing.
# lipid storage change, negative = inhibition, `CC1CCN(S(=O)(=O)N2CCC(C(=O)N3CCC(N(C)CC4CCCO4)CC3)CC2)CC1` (stereo unspecified) is entered as inconclusive: -20.4%
# lipid storage change, negative = inhibition, `COc1ccc(/C=N/NC(=O)c2ccc(Cl)cc2)cc1COC(C)=O` is entered as inconclusive: 5.22%
